# Record: PubChem BioAssay AID1259264 (Sanger Institute, 2017)
# Screen: 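Kinase-wide knock-down to find genes that strengthen targeted drug effects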 (primary screen)
# Cells: CL40 human colorectal cancer cells
# Reagents: siRNA pool against human genes
# Challenge: DMSO, or an anchor drug: BYL719 at 1 µM, cetuximab at 5 µg/ml, or trametinib at 10 nM
# Detection: 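Replicate-mean viability versus a non-targeting pool, robust z-score from control wells, and mean synergy with BYL719 1 µM, cetuximab 5 µg/ml or trametinib 10 nM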
# Scale: robust z-score, siRNA alone and viability, siRNA alone: higher = more viable cells; synergy score with BYL719: higher = stronger combined killing with BYL719; synergy score with cetuximab: higher = stronger combined killing with cetuximab; synergy score with trametinib: higher = stronger combined killing with trametinib
# Call rule: 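Essential call: siRNA with no drug reaches a robust z under -3 (low cell count); drug synergy scores do not affect it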
# Calls: active = essential (lowers viability alone); inactive = not essential
# In all, the deposit lists 794 reagents; this is a random part of them. Of all reagents, 15 (1.9%) are marked active. 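Calls rest on knock-down alone at z-score below -3; synergy scores with the three drugs do not decide them.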 Viability is capped at 1. No sequences are given here. Not given: the amount of reagent, the time to read-out.
"robust z-score, siRNA alone","viability, siRNA alone (fraction of control)",synergy score with BYL719,synergy score with cetuximab,synergy score with trametinib,Call,target
-1.11,0.882,-0.0275,-0.0391,0.0289,inactive,RPS6KA1 (ribosomal protein S6 kinase A1)
0.323,0.985,-0.0194,-0.0326,0.135,inactive,KSR2 (kinase suppressor of ras 2)
-1.45,0.858,0.0566,0.0107,0.079,inactive,RIOK2 (RIO kinase 2)
0.475,0.995,0.00692,0.0118,0.0941,inactive,HUS1 (HUS1 checkpoint clamp component)
-0.0598,0.957,-0.129,-0.0596,0.137,inactive,TPD52L3 (TPD52 like 3)
0.467,0.995,-0.0337,-0.000295,0.0159,inactive,MAP3K13 (mitogen-activated protein kinase kinase kinase 13)
0.539,1,0.0259,0.0591,0.0704,inactive,AK3 (adenylate kinase 3)
0.204,0.976,-0.0849,-0.041,-0.0795,inactive,PI4K2A (phosphatidylinositol 4-kinase type 2 alpha)
0.479,0.996,-0.00253,-0.0217,-0.00636,inactive,SLK (STE20 like kinase)
-1.34,0.865,-0.0198,-0.145,0.152,inactive,COASY (Coenzyme A synthase)
0.539,1,-0.0346,-0.0174,0.0593,inactive,TESK1 (testis associated actin remodelling kinase 1)
0.539,1,-0.0215,-0.0174,0.123,inactive,MAP3K5 (mitogen-activated protein kinase kinase kinase 5)
0.539,1,-0.0912,-0.0174,0.0518,inactive,GRK7 (G protein-coupled receptor kinase 7)
0.539,1,-0.156,-0.0174,0.126,inactive,AK2 (adenylate kinase 2)
-0.417,0.931,-0.0577,-0.0848,0.171,inactive,RPS6KA4 (ribosomal protein S6 kinase A4)
0.168,0.973,-0.0994,-0.0104,0.0761,inactive,CDKN1C (cyclin dependent kinase inhibitor 1C)
0.539,1,-0.126,-0.0174,0.0198,inactive,NEK6 (NIMA related kinase 6)
0.539,1,-0.0391,0.0129,0.0738,inactive,STK4 (serine/threonine kinase 4)
0.539,1,-0.156,-0.0174,0.0511,inactive,PGK2 (phosphoglycerate kinase 2)
0.539,1,-0.156,-0.0174,0.0471,inactive,LRRK2 (leucine rich repeat kinase 2)
0.539,1,-0.0399,-0.0174,0.0727,inactive,CSNK1G1 (casein kinase 1 gamma 1)

Copied from the list:
Under “synergy score with trametinib”, STK4 (serine/threonine kinase 4) is entered as 0.0738
Result of MAP3K5 (mitogen-activated protein kinase kinase kinase 5) under “synergy score with cetuximab”: -0.0174
Entry of AK2 (adenylate kinase 2) under “Call”: inactive
Entry for AK3 (adenylate kinase 3) under “synergy score with trametinib”: 0.0704
COASY (Coenzyme A synthase), synergy score with BYL719 → -0.0198
Entry of SLK (STE20 like kinase) in “synergy score with BYL719”: -0.00253

Additional entries:
"robust z-score, siRNA alone","viability, siRNA alone (fraction of control)",synergy score with BYL719,synergy score with cetuximab,synergy score with trametinib,Call,target
0.539,1,-0.156,-0.0174,0.0941,inactive,WNK3 (WNK lysine deficient protein kinase 3)
-2.6,0.775,-0.0156,-0.0963,0.0755,inactive,SNRK (SNF related kinase)
0.539,1,-0.0755,0.0807,0.037,inactive,CDKL2 (cyclin dependent kinase like 2)
-0.566,0.921,-0.13,-0.0185,0.128,inactive,PIK3CG
0.539,1,0.0278,-0.0174,0.104,inactive,DGUOK (deoxyguanosine kinase)
0.539,1,-0.156,-0.0174,-0.0477,inactive,NTRK3 (neurotrophic receptor tyrosine kinase 3)
0.333,0.985,-0.151,-0.0319,0.0326,inactive,BRSK2 (BR serine/threonine kinase 2)
-1.69,0.84,-0.161,-0.163,0.0397,inactive,"MERTK (MER proto-oncogene, tyrosine kinase)"
-0.958,0.893,-0.00406,0.0172,0.137,inactive,RPS6KA2 (ribosomal protein S6 kinase A2)
-0.539,0.923,-0.149,-0.0818,0.0754,inactive,ADGRL2 (adhesion G protein-coupled receptor L2)
0.539,1,-0.00343,-0.0021,0.0998,inactive,PRKCD (protein kinase C delta)
0.539,1,-0.106,-0.000723,0.119,inactive,DTYMK (deoxythymidylate kinase)
0.111,0.969,-0.182,-0.0476,0.036,inactive,VRK2 (VRK serine/threonine kinase 2)
0.539,1,-0.0664,-0.0174,0.0486,inactive,SGK1 (serum/glucocorticoid regulated kinase 1)
0.0955,0.968,-0.168,0.0434,0.00983,inactive,CDK9 (cyclin dependent kinase 9)
0.539,1,-0.0941,-0.0174,0.0591,inactive,CHKB (choline kinase beta)
-0.839,0.901,-0.0829,-0.0754,0.0353,inactive,LMTK3 (lemur tail kinase 3)
0.539,1,-0.0555,-0.0174,0.0767,inactive,CPNE3 (copine 3)
0.539,1,-0.095,0.015,0.107,inactive,PIP4K2B (phosphatidylinositol-5-phosphate 4-kinase type 2 beta)
-0.524,0.924,0.0645,-0.0412,0.128,inactive,ADCK1 (aarF domain containing kinase 1)
-0.594,0.919,-0.048,-0.00236,0.0377,inactive,AK5 (adenylate kinase 5)
0.194,0.975,-0.142,-0.0417,0.151,inactive,ZAP70 (zeta chain of T cell receptor associated protein kinase 70)
0.134,0.971,-0.154,-0.046,0.12,inactive,MAPK8 (mitogen-activated protein kinase 8)
0.539,1,-0.0349,-0.0174,0.123,inactive,EFNA4 (ephrin A4)
0.114,0.97,-0.116,-0.0336,0.0532,inactive,PDK2 (pyruvate dehydrogenase kinase 2)
0.539,1,-0.156,-0.0174,0.13,inactive,GRK2 (G protein-coupled receptor kinase 2)
-0.53,0.923,-0.147,-0.0867,0.0166,inactive,POMK (protein O-mannose kinase)
0.0474,0.965,-0.139,-0.0328,0.00758,inactive,FASTK (Fas activated serine/threonine kinase)
0.106,0.969,-0.0232,-0.0479,0.0124,inactive,IPMK (inositol polyphosphate multikinase)
0.539,1,-0.0633,-0.0174,0.142,inactive,MAST3 (microtubule associated serine/threonine kinase 3)
0.539,1,-0.135,0.0148,0.00471,inactive,LIMK2 (LIM domain kinase 2)
0.539,1,-0.121,0.0568,-0.111,inactive,CHD9 (chromodomain helicase DNA binding protein 9)
0.197,0.975,-0.0712,-0.0415,0.0131,inactive,MAP3K1 (mitogen-activated protein kinase kinase kinase 1)
0.533,1,-0.0526,-0.0179,0.0558,inactive,"PFKM (phosphofructokinase, muscle)"
-1.7,0.839,0.0259,-0.132,0.0754,inactive,KSR1 (kinase suppressor of ras 1)
-3.02,0.745,-0.0929,-0.0396,0.0519,active,PDPK1 (3-phosphoinositide dependent protein kinase 1)
0.465,0.995,-0.0753,-0.0227,0.0552,inactive,LMBR1 (limb development membrane protein 1)
0.321,0.984,-0.0566,-0.0328,0.104,inactive,NRBP1 (nuclear receptor binding protein 1)
-0.808,0.903,-0.0966,-0.0222,0.0211,inactive,CHEK1 (checkpoint kinase 1)
0.539,1,-0.111,0.00992,0.0395,inactive,BRWD1 (bromodomain and WD repeat domain containing 1)
0.539,1,-0.0807,-0.0174,0.000789,inactive,DGKG (diacylglycerol kinase gamma)
0.539,1,-0.0714,0.066,0.0243,inactive,BMPR1A (bone morphogenetic protein receptor type 1A)
